PubChem BioAssay AID1159584 – Peter MacCallum Cancer Centre – 2016
Shown is a random part of about 18,000 reagents tested. Not stated in the record: the amount of reagent, the time to read-out.

Assay: 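Genes whose loss is lethal only together with E-cadherin loss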 (primary screen)
Cells: human MCF10A breast epithelial cells, parental and CDH1-null
Knock-down reagent: siRNA against human genes
Measured: 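Cell viability by CellTiter-Glo ATP luminescence, each line scaled to the mean of mock wells across plates, then CDH1-null over parental ratio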
Scale: CDH1-null / parental viability ratio: higher = CDH1-null cells survive relatively better than parental; CDH1-null viability vs mock: higher = more viable CDH1-null cells; parental viability vs mock: higher = more viable parental cells

no.	gene symbol	CDH1-null / parental viability ratio	CDH1-null viability vs mock (fraction of mock)	parental viability vs mock (fraction of mock)
1	AKAP7	0.57	0.34	0.6
2	MPL	1.01	0.86	0.85
3	EXOC5	0.85	0.66	0.78
4	HELT	0.92	0.74	0.8
5	PGA3	1.43	0.99	0.69
6	SCML2	0.69	0.44	0.64
7	HSPBP1	0.98	0.79	0.81
8	URGCP	1.12	0.86	0.77
9	CD83	1.21	0.94	0.78
10	TNNI1	0.93	0.69	0.74
11	DDX50	1.07	0.95	0.89
12	C1QTNF12	0.99	0.92	0.93
13	OMA1	1.6	0.64	0.4
14	PPP1R3B	1.06	0.37	0.35
15	ZNF585A	1.12	1	0.89
16	EEFSEC	1.35	1.11	0.82
17	NRN1	0.92	0.44	0.48
18	CCDC102B	0.95	0.7	0.74
19	EVC2	0.93	0.5	0.54
20	ATRNL1	0.85	0.75	0.88
21	TUBA1C	0.64	0.5	0.78
22	R3HDM2	0.89	0.8	0.9
23	OR4B1	1.1	0.87	0.79
24	NFKBIL1	0.95	1.03	1.08
25	CARTPT	1	0.42	0.42
26	FRG2B	1.17	0.97	0.83
27	DGKE	0.87	0.78	0.9
28	C1orf198	1.24	0.98	0.79
29	DDX12P	0.97	0.83	0.86

Records above whose gene name starts with C or c:
gene symbol	CDH1-null / parental viability ratio	CDH1-null viability vs mock (fraction of mock)	parental viability vs mock (fraction of mock)
CD83	1.21	0.94	0.78
C1QTNF12	0.99	0.92	0.93
CCDC102B	0.95	0.7	0.74
CARTPT	1	0.42	0.42
C1orf198	1.24	0.98	0.79

Further results follow:
no.	gene symbol	CDH1-null / parental viability ratio	CDH1-null viability vs mock (fraction of mock)	parental viability vs mock (fraction of mock)
30	EHMT1	1.2	0.66	0.55
31	ZNRF3	0.98	1.02	1.04
32	CTSS	1.21	0.8	0.66
33	GFI1B	1.02	0.61	0.6
34	ZNF276	1.02	0.56	0.55
35	FBXL17	0.91	0.64	0.7
36	MAP3K10	1.04	0.87	0.84
37	PCDHA8	0.87	0.9	1.03
38	ADIPOR2	1.09	0.48	0.44
39	PANK2	1.01	0.72	0.71
40	GGT7	1.13	0.86	0.76
41	KIF22	0.9	0.77	0.86
42	DPT	0.86	0.57	0.66
43	SCAMP5	1.15	0.69	0.6
44	TTC39B	0.74	0.5	0.68
45	DNAJB6	1.17	0.97	0.83
46	IMP3	1.11	0.59	0.53
47	BEND4	0.94	0.75	0.8
48	TRAIP	0.99	0.96	0.97
49	LZTS3	0.96	0.5	0.52
50	MASP1	1.05	0.68	0.65
51	DEFB106A	0.95	0.96	1.01
52	OLA1	1	0.94	0.94
53	HORMAD1	1.14	1	0.88
54	IQCE	0.95	0.9	0.95
55	DAB2IP	1.21	1.02	0.84
56	CCNJL	1.06	0.7	0.66
57	CCR3	0.87	0.82	0.94
58	YY2	0.97	0.93	0.96
59	ELMO1	1.4	0.77	0.55
60	ZNF410	0.95	0.78	0.82
61	SAMSN1	1.1	1.27	1.15
62	CALR3	1.09	0.94	0.86
63	TIE1	1.06	0.72	0.68
64	ATP8A2	0.85	0.64	0.75
65	NSL1	0.93	0.78	0.84
66	CAMLG	1.24	1.02	0.82
67	SLC2A3	1.09	1.1	1.01
68	FATE1	1	0.42	0.42
